Record: PubChem BioAssay AID1508588 (Peter MacCallum Cancer Centre, 2020)

Aim: 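Knock-downs boosting vemurafenib effects on melanoma cell growth or lactate release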 (primary screen)
Cell system: human WM266.4 melanoma cells (BRAF V600 mutant)
Reagent: siRNA pool against human genes, 40 nM
Time to read-out: 96 h from transfection to read-out
Conditions: vemurafenib 300 nM (about IC25), added 48 h after transfection, for 48 h; comparison arm got DMSO vehicle only
Measured: 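Ratios to non-targeting siRNA for cell gain, counted as DAPI nuclei after minus before drug and averaged over two replicates, and for absorbance-read medium lactate per cell; both binned into fold-change classes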
Reading the numbers: cell gain with vemurafenib: higher = more cell gain than with non-targeting siRNA; lactate per cell with vemurafenib: higher = more lactate made per cell
Rule for the call: 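Enhancement is called by pairing each knock-down's vehicle-arm and drug-arm fold-change classes for viability or glycolysis; which class combinations qualify is not given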
Meaning of the calls: active = enhances vemurafenib effect; inactive = no enhancement seen
This is an unselected part of about 18,000 deposited reagents. 790 of all reagents (4.4%) were called active. 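Calls rest on a combination of fold-change classes in drug and vehicle arms, not all shown here.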

no.	Target gene	cell gain with vemurafenib	lactate per cell with vemurafenib	call
1	SLC26A6	0.35	1.62	inactive
2	UTP25 (UTP25 small subunit processome component)	0.25	0.76	inactive
3	KRT32 (keratin 32)	0.13	1.59	inactive
4	FAM50B (family with sequence similarity 50 member B)	0.53	0.88	inactive
5	BIRC7 (baculoviral IAP repeat containing 7)	0.97	0.84	inactive
6	IGSF9 (immunoglobulin superfamily member 9)	0.5	1.17	inactive
7	ALDH3B2 (aldehyde dehydrogenase 3 family member B2)	0.87	0.76	inactive
8	TNFRSF19 (TNF receptor superfamily member 19)	0.88	0.78	inactive
9	UBLCP1 (ubiquitin like domain containing CTD phosphatase 1)	0.6	0.97	inactive
10	ZIC4 (Zic family zinc finger 4)	0.5	0.78	inactive
11	EGFL6 (EGF like domain multiple 6)	0.02	1.58	inactive
12	QTMAN (queuosine-tRNA mannosyltransferase)	0.39	0.55	inactive
13	SERPINA3 (serpin family A member 3)	0.62	0.72	inactive
14	KRT6B (keratin 6B)	0.94	1.33	inactive
15	VCX3A (variable charge X-linked 3A)	0.61	0.89	inactive
16	CD163L1 (CD163 molecule like 1)	0.62	1.27	inactive
17	NOS3 (nitric oxide synthase 3)	0.68	0.45	inactive
18	NAGPA	0.8	0.32	inactive
19	MRPS2 (mitochondrial ribosomal protein S2)	0.28	2.13	inactive
20	C11orf58 (chromosome 11 open reading frame 58)	0.96	0.93	inactive
21	N4BP1 (NEDD4 binding protein 1)	0.71	0.48	active
22	SEC24D (SEC24 homolog D, COPII component)	0.86	0.8	inactive
23	TMSB15A (thymosin beta 15A)	0.55	1.83	inactive
24	FOXO1 (forkhead box O1)	0.78	1.22	inactive
25	PDXP (pyridoxal phosphatase)	0.6	2.08	inactive
26	RPUSD4 (RNA pseudouridine synthase D4)	-0.05	0.77	inactive
27	LCNL1 (lipocalin like 1)	0.25	1.75	inactive
28	PSG6 (pregnancy specific beta-1-glycoprotein 6)	0.65	0.55	inactive
29	TBC1D3B (TBC1 domain family member 3B)	1.15	0.63	inactive
30	TXNDC16 (thioredoxin domain containing 16)	0.86	0.84	inactive
31	PGA3 (pepsinogen A3)	0.12	0.99	inactive
32	MARK2 (microtubule affinity regulating kinase 2)	0.87	1.04	inactive
33	MINDY4 (MINDY lysine 48 deubiquitinase 4)	0.37	1.05	inactive

Active calls, of those listed so far:
Target gene	cell gain with vemurafenib	lactate per cell with vemurafenib	call
N4BP1 (NEDD4 binding protein 1)	0.71	0.48	active

The results go on.
no.	Target gene	cell gain with vemurafenib	lactate per cell with vemurafenib	call
34	FAHD1 (FAH domain containing oxaloacetate decarboxylase 1)	0.66	1.15	inactive
35	KSR1 (kinase suppressor of ras 1)	0.04	0.62	inactive
36	IRF2 (interferon regulatory factor 2)	0.8	1	inactive
37	SLC29A4	0.6	0.86	inactive
38	OTOR (otoraplin)	0.99	0.66	inactive
39	DEFB132 (defensin beta 132)	-0.04	1.68	inactive
40	MUCL1 (mucin like 1)	0.6	1.52	inactive
41	CC2D2B (coiled-coil and C2 domain containing 2B)	0.82	0.86	inactive
42	C1orf56 (chromosome 1 open reading frame 56)	0.96	0.72	inactive
43	CEP76 (centrosomal protein 76)	0.82	0.46	inactive
44	GCNT2 (glucosaminyl (N-acetyl) transferase 2 (I blood group))	1.17	0.73	inactive
45	NUP153 (nucleoporin 153)	0.65	0.88	inactive
46	APOC2 (apolipoprotein C2)	0.52	1.42	inactive
47	TIMD4 (T cell immunoglobulin and mucin domain containing 4)	1.03	0.4	inactive
48	OLFML2B (olfactomedin like 2B)	1.15	0.71	inactive
49	RSPH9 (radial spoke head component 9)	0.54	1.37	inactive
50	NOB1 (NIN1 (RPN12) binding protein 1 homolog)	1.01	0.71	inactive
51	STX4 (syntaxin 4)	0.5	1.34	inactive
52	TM6SF1 (transmembrane 6 superfamily member 1)	0.22	0.97	inactive
53	MACF1 (microtubule actin crosslinking factor 1)	0.54	1.73	inactive
54	P3H4 (prolyl 3-hydroxylase family member 4 (inactive))	0.52	1.04	inactive
55	TNXB (tenascin XB)	0.06	0.67	active
56	SEMG2 (semenogelin 2)	0.85	1.49	inactive
57	SLC19A3	1.04	1.21	inactive
